Data as given in PubChem BioAssay AID504793 (Drosophila RNAi Screening Center, 2011)
Aim: 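Whole-genome screen for parts of the DNA damage checkpoint at G2/M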 (primary screen). Cells: Drosophila S2R+ cells. Knock-down reagent: long dsRNA against Drosophila genes, about 0.25 µg dsRNA per well. Time to read-out: 4 days of dsRNA, then 4 hours of drug before read-out. Challenge: doxorubicin 0.5 µM for 4 hours to cause double-strand breaks, in cells also given a low, harmless dose of dsRNA against nbs to sensitise the assay. Measurement: 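Per-well count of mitotic cells stained for phospho-histone H3 after doxorubicin exposure, used as mitotic index; counts are raw and not normalised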. Reading the numbers: mitotic cells: higher = more cells in mitosis, weaker G2 arrest. Rule for the call: 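a call needs confirmation in secondary tests, with other dsRNAs and a check of mitotic timing without damage, not just a high primary count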. Meaning of the calls: active = confirmed in follow-up tests; inactive = not confirmed.
The screen tested about 23,000 reagents; this is an unselected part of those with a known target gene and a result. Of all reagents, 62 (0.27%) are marked active. 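Calls come from follow-up tests whose scores are not deposited, so confirmed genes may have low counts here; counts are not normalised per plate.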 The raw values are shown without normalisation. A plus sign joins genes that one reagent is predicted to hit. Reagent sequences are not shown.

no.	target gene	amplicon	mitotic cells, replicate 1	Call
1	Atat (alpha-tubulin acetylase)	DRSC10392	10	inactive
2	Ten-m (Tenascin major)	DRSC11664	2	inactive
3	Ten-m (Tenascin major)	DRSC11882	4	inactive
4	nxf2 (nuclear RNA export factor 2)	DRSC10403	4	inactive
5	nxf2 (nuclear RNA export factor 2)	DRSC26721	4	inactive
6	Or63a (Odorant receptor 63a)	DRSC08681	4	inactive
7	Cox11 (Cytochrome c oxidase copper chaperone COX11)	DRSC22692	8	inactive
8	Fkbp39 (FK506-binding protein 39kD)	DRSC16667	6	inactive
9	Fkbp39 (FK506-binding protein 39kD)	DRSC23792	3	inactive
10	Him (Holes in muscle)	DRSC19638	11	inactive
11	CG13203	DRSC06327	6	inactive
12	CG13203	DRSC29202	5	inactive
13	pn (prune)	DRSC18822	8	inactive
14	pn (prune)	DRSC28649	14	inactive
15	ppk17 (pickpocket 17)	DRSC02252	4	inactive
16	RpS29 + snoRNA:Psi18S-1275	DRSC16433	9	inactive
17	ppk5 (pickpocket 5)	DRSC11492	7	inactive
18	PolQ (DNA polymerase theta)	DRSC17006	5	inactive
19	CG5276	DRSC15759	3	inactive
20	Nopp140	DRSC11872	5	inactive
21	Nopp140	DRSC24599	5	inactive
22	Nf-YC (Nuclear factor Y-box C)	DRSC23106	8	inactive
23	Uvrag (UV-resistance associated gene)	DRSC02932	5	inactive
24	CG13126	DRSC02222	7	inactive
25	CG13126	DRSC27620	8	inactive
26	hh (hedgehog)	DRSC16965	4	inactive
27	hh (hedgehog)	DRSC29242	2	inactive
28	hh (hedgehog)	DRSC39128	14	inactive
29	ATPsynC (ATP synthase, subunit C)	DRSC15236	15	inactive
30	Sp7 (Serine protease 7)	DRSC15461	9	inactive
31	Phae1 (Phaedra 1)	DRSC02554	12	inactive
32	mod (modulo)	DRSC16999	3	inactive
33	mod (modulo)	DRSC28409	8	inactive
34	CG6961 + CG18259	DRSC19799	3	inactive
35	CG6961 + CG18259	DRSC20019	4	inactive
36	CG6961 + CG18259	DRSC26849	4	inactive
37	B-H2 (BarH2)	DRSC23012	6	inactive
38	B-H2 (BarH2)	DRSC25817	10	inactive
39	CG16863	DRSC01892	4	inactive
40	Dcps (Decapping enzyme, scavenger)	DRSC12299	9	inactive
41	Sqor (Sulfide quinone oxidoreductase)	DRSC08453	8	inactive
42	Sqor (Sulfide quinone oxidoreductase)	DRSC27056	6	inactive
43	KFase (Kynurenine formamidase)	DRSC03258	2	inactive
44	KFase (Kynurenine formamidase)	DRSC30035	4	inactive
45	CG9173	DRSC08635	3	inactive
46	CG2663	DRSC12314	5	inactive
47	CG2663	DRSC28701	7	inactive
48	CG11403	DRSC18532	5	inactive
49	wls (wntless)	DRSC10605	6	inactive
50	wls (wntless)	DRSC29313	7	inactive
51	CG8607	DRSC11012	4	inactive
52	CG1662	DRSC19754	5	inactive
53	CG14777	DRSC18563	12	inactive
54	CG14207	DRSC19562		inactive
55	CG14207	DRSC19563	3	inactive
56	Tdg (Thymine DNA glycosylase)	DRSC17119	6	inactive
57	Tdg (Thymine DNA glycosylase)	DRSC17169	20	inactive
58	ND-B12 (NADH dehydrogenase (ubiquinone) B12 subunit)	DRSC04060	8	inactive
59	CG17991	DRSC15294	7	inactive
60	CG31741	DRSC02887	5	inactive
61	Gr93d (Gustatory receptor 93d)	DRSC21941	10	inactive
62	SerRS (Seryl-tRNA synthetase)	DRSC00496	6	inactive
63	pncr004:X (retired record)	DRSC37922	9	inactive
64	PIG-X (Phosphatidylinositol glycan anchor biosynthesis class X)	DRSC22721	11	inactive
65	crn (crooked neck)	DRSC18184	4	inactive
66	crn (crooked neck)	DRSC18185	10	inactive
67	crn (crooked neck)	DRSC18755	6	inactive
68	ninaB (neither inactivation nor afterpotential B)	DRSC16807	5	inactive
69	ninaB (neither inactivation nor afterpotential B)	DRSC27875	3	inactive
70	CG30222	DRSC04125	4	inactive
71	CG30222	DRSC04262	7	inactive
72	CG15530	DRSC15067	7	inactive
73	CG15530	DRSC29873	7	inactive
74	alpha-Est10 (alpha-Esterase-10)	DRSC12613	7	inactive
75	alpha-Est10 (alpha-Esterase-10)	DRSC25456	5	inactive

Records above whose gene name starts with A or a (4):
target gene	amplicon	mitotic cells, replicate 1	Call
Atat (alpha-tubulin acetylase)	DRSC10392	10	inactive
ATPsynC (ATP synthase, subunit C)	DRSC15236	15	inactive
alpha-Est10 (alpha-Esterase-10)	DRSC12613	7	inactive
alpha-Est10 (alpha-Esterase-10)	DRSC25456	5	inactive
